# Measurements reported in patent US20110008466A1, “METHODS AND COMPOSITIONS FOR ALTERING CELL FUNCTION” (ALLTECH, INC., priority 2006, published 2011).
# At least one compound was matched to its structure with a doubt left.
# Assays:
# Assay type in all cases: in vivo, mice
# [1] = system: complement component genes; experiment: Microarray gene expression, mouse cerebral cortex (summary of Table 6); conditions: p<0.01
# From the text: (§1) Animal Care. Male C57BL/6J mice were housed singly and started on the experimental diets described below immediately after weaning (21 days of age). The mice were maintained in the Shared Aging Rodent Facility at the William S. Middleton Memorial Veterans Administration Medical Center (Madison, Wis.). Temperature and humidity were maintained at constant levels. Room light was controlled to provide 12-hr cycles of light and dark.
# (§2) Experimental diets were created by Harlan Teklad (Madison, Wis.). Selenium content of the diets was determined by Covance Inc. (Madison, Wis.). Five (5) animals were included in each of the following treatment groups: a diet deficient in selenium (SD); a diet supplemented with selenomethionine (SM, obtained from Sigma, St. Louis, Mo.) such that the final selenium content of the diet was one (1) part per million; a diet supplemented with sodium selenite (SS, Sigma) such that the final concentration of selenium in this diet was one (1) part per million; or a diet supplemented with the yeast selenium SEL-PLEX (SP, Alltech, Lexington, Ky.), such that the final concentration of selenium in this diet was one (1) part per million. SEL-PLEX. […]
# (§3) Tissue sample preparation and microarray analysis. […] For intestinal expression studies, the intestine was flushed twice with saline solution and small intestine was measured and divided in three equal segments. […]
# GST genes = experiment: Microarray gene expression, mouse intestine (summary of Table 3); conditions: vs Se-deficient diet
# From the text: as §1, §2, §3
# Gadd45g1p = experiment: Microarray gene expression, mouse intestine; conditions: p<0.05
# From the text: as §1
# (§4) Experimental diets were created by Harlan Teklad (Madison, Wis.). Selenium content of the diets was determined by Covance Inc. (Madison, Wis.). Five (5) animals were included in each of the following treatment groups: a diet deficient in selenium (SD); a diet supplemented with selenomethionine (SM, obtained from Sigma, St. Louis, Mo.) such that the final selenium content of the diet was one (1) part per million; a diet supplemented with sodium selenite (SS, Sigma) such that the final concentration of selenium in this diet was one (1) part per million; or a diet supplemented with the yeast selenium SEL-PLEX (SP, Alltech, Lexington, Ky.), such that the final concentration of selenium in this diet was one (1) part per million. SEL-PLEX. Mice were provided with water and their respective diet ad libitum for 100 days. Diets were stored at the dark at 4° C. and fresh diet was added to feeder twice weekly.
# (§5) Tissue sample preparation and microarray analysis. Mice were killed at 100 days of age by cervical dislocation. For intestinal expression studies, the intestine was flushed twice with saline solution and small intestine was measured and divided in three equal segments. A 3-cm region of the middle segment of the small intestine corresponding to the jejunum (˜300 mg of tissue) was cut and rinsed again with physiological saline to completely remove contents, flash frozen in liquid nitrogen and stored at −80° C. For brain (e.g., cerebral cortex) studies, the cerebral cortex was separated from the surrounding brain tissue and was flash frozen in liquid nitrogen and stored at −80° C.
# (§6) Total RNA was isolated from using the guanidinium isothiocyanate method of TRIZOL (Life Technologies, Grand Island, N.Y.) and individual samples were used for gene expression profiles. Total RNA was cleaned up by RNeasy Mini kit (Qiagen, Valencia, Calif.). Target RNA was prepared by converting […] total RNA into double-strand cDNA using GeneChip Expression 3′-Amplification Reagents One-Cycle cDNA Synthesis Kit (Affymetrix, Santa Clara, Calif.) with a T7-(dT)24 primer incorporating a T7 RNA polymerase promoter. After cleaning up double-strand cDNA using Genechip Sample Cleanup Module (Affymetrix, Santa Clara, Calif.), biotin-labeled cRNA was synthesized from double-strand cDNA using GeneChip Expression 3′-Amplification Reagents for IVT Labeling (Affymetrix, Santa Clara, Calif.). The biotin-labeled cRNA was cleaned up using Genechip Sample Cleanup Module and was fragmented by heating (35 min at 94° C.).
# (§7) Fifteen (15) μg of cRNA fragments were hybridized (16 h at 45° C.) to Mouse Genome 430 2.0 Array (Affymetrix, Santa Clara, Calif.) using GeneChip Hybridization Oven 640. After hybridization, the gene chips were automatically washed and stained with streptavidin-phycoerythrin biotinylated anti-streptavidin using Affymetrix GeneChip Fluidics Station 450. The DNA chips were scanned with Affymetrix GeneChip Scanner 3000 (Affymetrix, Santa Clara, Calif.) to detect the cell signal intensities by laser. All calculations were performed with Affymetrix GeneChip Operating Software (GCOS) version 1.3 after scanning
# (§8) • 1. The spreadsheet containing probe set identifiers and signal intensity values was opened in Microsoft Excel (version 11.1.1 for the Macintosh OS-X operating system) and summary statistics were generated (mean signal intensity for each treatment group, standard error of the mean). Two-tailed t-tests (equal variance) were performed for the following treatment groups: SM vs. SD, SS vs. SD, and SP vs. SD. […]
# [2] = system: sprouty homolog 2 gene (Spry2); experiment: Microarray gene expression, mouse intestine; conditions: relative to Se-deficient controls
# From the text: as §1, §4, §5, §6, §7, §8
# [3] = system: LIM homeobox protein 8 gene (Lhx8); experiment: Microarray gene expression, mouse intestine; conditions: vs Se-deficient subjects, p<0.01
# From the text: as §1, §4, §5, §6, §7, §8
# selenoprotein N1 (Sepn1) = experiment: Microarray gene expression, mouse intestine; conditions: 1 ppm Se diet 100 days vs Se-deficient diet, p<0.02
# From the text: as §1, §4, §5, §6, §7, §8
# [4] = system: type II iodothyronine deiodinase (Dio2); experiment: Microarray gene expression, mouse intestine; conditions: 1 ppm Se diet 100 days vs Se-deficient diet
# From the text: as §1, §4, §5, §6, §7, §8
# [5] = system: transforming growth factor beta 2 (TGF-β2); experiment: Microarray gene expression, mouse intestine; conditions: vs controls
# From the text: as §1, §4, §5, §6, §7, §8
# Glyoxalase 1 (Glo1) = experiment: Microarray gene expression, mouse intestine; conditions: 1 ppm Se diet 100 days vs Se-deficient diet, p<0.01
# From the text: as §1, §4, §5, §6, §7, §8
# Neurogenin 3 (Neurog3) = experiment: Microarray gene expression, mouse intestine; conditions: vs Se-deficient diet
# From the text: as §1, §4, §5, §6, §7, §8
# Prohibitin (Phb) = experiment: Microarray gene expression, mouse intestine; conditions: vs Se-deficient diet, p<0.05
# From the text: as §1, §4, §5, §6, §7, §8
# [6] = system: glycogen synthase kinase-3-beta (GSK-3β); experiment: Microarray gene expression, tau kinases, brain; conditions: vs non-selenium supplemented diet; minus = down; * significant
# From the text: as §1, §2, §3
# Gadd45b [7] = experiment: Microarray gene expression, mouse cerebral cortex; conditions: cortex tissue; vs Se-deficient; minus = down; listed as sodium selenite
# From the text: as §1, §2, §3
# CORS-26 = experiment: Microarray gene expression, mouse cerebral cortex; conditions: Example 10 (brain); vs Se-deficient diet
# From the text: as §1, §2, §3
# Gadd45b [8] = experiment: Gene expression, skeletal muscle tissue; conditions: vs Se-deficient, minus = down, listed as sodium selenite
# From the text: as §1
# as §2, with “SEL-PLEX. Mice were provided with water and their respective diet ad libitum for 100 days.” for “SEL-PLEX.”
# • 1. […] Additionally, a “signal intensity score” was calculated for each probe set as the sum of the signal intensities for all chips (N=20). • 2. […]
smiles,measurement,setting,value
"O=[Se](O)O [Sod-sel, sodium selenite]",down-regulation of complement component genes (summary in words),[1],did not provide a statistically significant alteration
same,alteration of expression pattern of GST genes (summary in words),GST genes,"altered (e.g., reduced) expression"
same,expression of Gadd45g1p in intestinal tissue,Gadd45g1p,decreased expression
same,fold reduction in Spry2 gene expression,[2],no alteration
same,fold upregulation of Lhx8 expression,[3],not significantly different
same,fold increase of selenoprotein N1 (Sepn1) gene expression,selenoprotein N1 (Sepn1),not significantly affected
same,fold down-regulation of Dio2 expression,[4],no ability to alter
same,fold upregulation of TGF-β2 expression,[5],not altered
same,fold reduction of Glo1 expression,Glyoxalase 1 (Glo1),not significantly affected
same,fold upregulation of Neurog3 expression,Neurogenin 3 (Neurog3),no significant alteration
same,fold downregulation of Prohibitin (Phb) expression,Prohibitin (Phb),did not significantly alter
same,FC GsKβ3 (GSK-3β) gene expression,[6],significant fold change
same,"Fold change Gadd45b gene expression, ctx (Table 14)",Gadd45b [7],significant reduction
same,fold reduction in expression of CORS-26,CORS-26,no alteration
same,"Fold change Gadd45b gene expression, skm (Table 14)",Gadd45b [8],significant reduction
